Assay results: article PMC10837140
Results are given in words; binding and its absence hold for the method and conditions named. In cells and extracts the contact can be indirect. Some results given as binding are weak or reduced against the parent protein; the word gives no strength.

The chains behind the UniProt entries cited, without tags or fusion partners.
UniProt Q16539: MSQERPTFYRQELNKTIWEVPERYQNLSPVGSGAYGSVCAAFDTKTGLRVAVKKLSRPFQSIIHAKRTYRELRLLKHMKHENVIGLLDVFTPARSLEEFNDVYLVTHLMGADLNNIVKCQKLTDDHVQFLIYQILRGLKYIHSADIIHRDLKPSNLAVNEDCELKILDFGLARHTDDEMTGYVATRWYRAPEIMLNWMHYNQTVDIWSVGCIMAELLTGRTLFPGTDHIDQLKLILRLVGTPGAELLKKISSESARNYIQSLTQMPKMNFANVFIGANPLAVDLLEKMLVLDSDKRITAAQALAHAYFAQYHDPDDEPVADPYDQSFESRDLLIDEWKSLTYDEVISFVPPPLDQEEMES
UniProt P08151: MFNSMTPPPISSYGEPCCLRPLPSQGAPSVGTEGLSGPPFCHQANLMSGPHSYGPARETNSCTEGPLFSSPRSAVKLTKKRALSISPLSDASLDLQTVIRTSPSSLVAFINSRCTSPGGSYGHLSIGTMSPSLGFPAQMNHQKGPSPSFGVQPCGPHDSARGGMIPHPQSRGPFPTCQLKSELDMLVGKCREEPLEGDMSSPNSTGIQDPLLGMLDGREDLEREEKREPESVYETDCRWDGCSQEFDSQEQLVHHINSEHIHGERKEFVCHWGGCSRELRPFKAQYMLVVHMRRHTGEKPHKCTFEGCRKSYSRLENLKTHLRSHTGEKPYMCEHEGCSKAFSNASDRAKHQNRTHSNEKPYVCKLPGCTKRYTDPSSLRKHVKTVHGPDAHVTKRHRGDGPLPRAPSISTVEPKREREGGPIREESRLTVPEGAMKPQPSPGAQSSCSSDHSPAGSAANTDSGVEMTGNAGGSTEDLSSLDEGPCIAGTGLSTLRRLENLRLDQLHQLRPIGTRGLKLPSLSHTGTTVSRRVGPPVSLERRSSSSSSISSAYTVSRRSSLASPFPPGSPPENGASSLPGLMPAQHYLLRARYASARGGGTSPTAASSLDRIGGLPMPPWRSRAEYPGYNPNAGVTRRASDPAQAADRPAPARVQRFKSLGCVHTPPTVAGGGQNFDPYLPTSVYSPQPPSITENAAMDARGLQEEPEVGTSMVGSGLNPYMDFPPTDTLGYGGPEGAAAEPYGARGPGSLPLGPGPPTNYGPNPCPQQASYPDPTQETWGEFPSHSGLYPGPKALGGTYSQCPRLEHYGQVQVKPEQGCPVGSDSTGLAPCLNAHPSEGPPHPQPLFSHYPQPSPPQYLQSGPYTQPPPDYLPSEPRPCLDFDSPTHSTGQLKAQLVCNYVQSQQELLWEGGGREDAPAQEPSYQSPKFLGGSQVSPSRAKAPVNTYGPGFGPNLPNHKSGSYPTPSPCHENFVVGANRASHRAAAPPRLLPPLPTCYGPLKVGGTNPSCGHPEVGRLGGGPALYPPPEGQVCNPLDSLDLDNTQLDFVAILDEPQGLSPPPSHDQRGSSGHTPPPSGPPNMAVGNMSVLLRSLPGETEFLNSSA

Biological target: Flag-MAPK14 (p38α) (UniProt Q16539)
Assay: co-IP; whole cell lysates of HEK293T cells transiently expressing Flag-MAPK14 or HA-GLI1; precipitated with a Flag or HA antibody, SDS-PAGE and immunoblotting of the endogenous partner

- binding: binds
Substance: endogenous GLI1 (glioma-associated oncogene 1) (from UniProt P08151 1-1106)
